Here are results for 28 compounds from the supplement of paper PMC11348887.

Structures can show the parent of a compound that is named as a salt. The list shows a part of the results. Most values lie at the level of the controls, where differences are scatter.

Common to all, as to details: 5 µM; treatment: days 7-14 after plating, readout day 21
Assay [1] concerns hPSC-derived cortical neurons (WA09). Description: nucleus area z-score vs screen plate; higher = larger nuclei (more mature).
Assay [2] has the same test system. In words: total neurite length per nucleus (MAP2) z-score; higher = more neurite growth.
Assay [3] shares this test system. In words: nucleus roundness z-score vs screen plate; higher = rounder nuclei (more mature).
The test system is the same in assay [4]. In words: KCl-induced FOS+/EGR-1+ double-positive nuclei fraction z-score (KCl minus unstimulated); higher = stronger activity-induced IEG response.

`O=[N+]([O-])c1ncc[nH]1` [Azomycin] had a nucleus area z-score in assay [1] of 0.142. In assay [2], the “total neurite length per nucleus (z-score)” value worked out at 0.271. The compound further came in with a nucleus roundness z-score in assay [3] of -0.0753. In assay [4], the “KCl-induced FOS+/EGR-1+ double-positive nuclei fraction z-score” value turned out to be 0.596.

The compound `Cn1cc(C2=C(c3cn(C4CCN(Cc5ccccn5)CC4)c4ccccc34)C(=O)NC2=O)c2ccccc21` displayed a nucleus area z-score in assay [1] of 0.348. Further, the “total neurite length per nucleus (z-score)” value in assay [2] was -0.232. Further, in assay [3], the nucleus roundness z-score was -0.55. Also, the “KCl-induced FOS+/EGR-1+ double-positive nuclei fraction z-score” value in assay [4] stood at 0.75.

The compound `C[C@@]12N[C@@H](Cc3ccccc31)c1ccccc12` [(-)-MK 801 Maleate] registered a nucleus area z-score in assay [1] of 0.614. Moreover, in assay [2], the “total neurite length per nucleus (z-score)” value amounted to 0.338. In assay [3], the nucleus roundness z-score was -0.335. The “KCl-induced FOS+/EGR-1+ double-positive nuclei fraction z-score” value in assay [4] is -0.269.

`CC(O)(CS(=O)(=O)c1ccc(F)cc1)C(=O)Nc1ccc(C#N)c(C(F)(F)F)c1` (configuration not stated) [Bicalutamide] showed a nucleus area z-score in assay [1] of 1.14. Moreover, in assay [2], the “total neurite length per nucleus (z-score)” value amounted to 0.229. In assay [3], this compound gave a nucleus roundness z-score of 1.21. For the same compound, in assay [4], the “KCl-induced FOS+/EGR-1+ double-positive nuclei fraction z-score” value is 1.25.

Take `Cc1cccc(Cc2c[nH]cn2)c1C` [Detomidine HCl]: the nucleus area z-score in assay [1] was -0.747. Further, in assay [2], the “total neurite length per nucleus (z-score)” value is 0.514. In assay [3], the nucleus roundness z-score was -0.81. Also, the “KCl-induced FOS+/EGR-1+ double-positive nuclei fraction z-score” value in assay [4] worked out at 0.368.

`CC[C@H]1CN2CC[C@H]1C[C@@H]2[C@@H](O)c1ccnc2ccc(OC)cc12` [Hydroquinidine]: in assay [1], the nucleus area z-score is -0.755. The “total neurite length per nucleus (z-score)” value in assay [2] worked out at 0.314. Also, in assay [3], the nucleus roundness z-score is 1.13. The “KCl-induced FOS+/EGR-1+ double-positive nuclei fraction z-score” value in assay [4] was 1.37.

In assay [1], `CN(C)C(=O)Oc1cc(OC(=O)N(C)C)cc(C(O)CNC(C)(C)C)c1` (configuration not stated) [Bambuterol HCl] gave a nucleus area z-score of 0.136. Also, the “total neurite length per nucleus (z-score)” value in assay [2] was found to be 0.223. The nucleus roundness z-score in assay [3] is -0.372. Moreover, in assay [4], the “KCl-induced FOS+/EGR-1+ double-positive nuclei fraction z-score” value was -0.0154.

For `COC(=O)C1=CCCN(C)C1` [Arecoline], the nucleus area z-score in assay [1] was -0.614. Also, in assay [2], the “total neurite length per nucleus (z-score)” value was -0.783. Further, the nucleus roundness z-score in assay [3] was -0.149. Besides, the “KCl-induced FOS+/EGR-1+ double-positive nuclei fraction z-score” value in assay [4] was -0.0446.

Regarding `O=[N+]([O-])C(Br)(CO)CO` [Bronopol], in assay [1], the nucleus area z-score was 1.6. For the same compound, the “total neurite length per nucleus (z-score)” value in assay [2] was -1.36. Further, the nucleus roundness z-score in assay [3] is -1.21. Further, in assay [4], the “KCl-induced FOS+/EGR-1+ double-positive nuclei fraction z-score” value is -2.01.

For the compound `COC(=O)[C@@H](N)CCCNC(=N)N[N+](=O)[O-]`, in assay [1], the nucleus area z-score was 0.558. In assay [2], the “total neurite length per nucleus (z-score)” value is -0.499. In assay [3], the nucleus roundness z-score is -1.22. Besides, in assay [4], the “KCl-induced FOS+/EGR-1+ double-positive nuclei fraction z-score” value was -0.253.

For `Cc1c(Cl)c(OCC(=O)N2CCN(C)CC2)nc2sc(C(=O)NC3CC3)c(N)c12`, in assay [1], the nucleus area z-score came to 1.36. In assay [2], the “total neurite length per nucleus (z-score)” value is 0.425. In addition, the nucleus roundness z-score in assay [3] was -0.223. In addition, the “KCl-induced FOS+/EGR-1+ double-positive nuclei fraction z-score” value in assay [4] was -0.0616.

The compound `O=C(O)CCCc1ccc(N(CCCl)CCCl)cc1` [Chloroambucil] yielded a nucleus area z-score in assay [1] of 0.151. Also, in assay [2], the “total neurite length per nucleus (z-score)” value was determined as 1.14. In assay [3], this compound registered a nucleus roundness z-score of 1.24. In assay [4], the “KCl-induced FOS+/EGR-1+ double-positive nuclei fraction z-score” value is 1.25.

As for `C/C(=C\c1csc(C)n1)[C@@H]1C[C@@H]2O[C@]2(C)CCC[C@H](C)[C@H](O)[C@@H](C)C(=O)C(C)(C)[C@@H](O)CC(=O)O1` [Epothilone B (EPO906_ Patupilone)], in assay [1], the nucleus area z-score stood at 0.839. For the same compound, in assay [2], the “total neurite length per nucleus (z-score)” value was -0.298. In assay [3], this compound gave a nucleus roundness z-score of -0.792. In addition, the “KCl-induced FOS+/EGR-1+ double-positive nuclei fraction z-score” value in assay [4] is -0.213.

Take `CCN(CC)C(=O)c1ccc(C2=CC3(CCNCC3)Oc3cccc(O)c32)cc1`: the nucleus area z-score in assay [1] was determined as 0.86. In assay [2], the “total neurite length per nucleus (z-score)” value worked out at 0.0444. Moreover, the nucleus roundness z-score in assay [3] was -1.19. Also, the “KCl-induced FOS+/EGR-1+ double-positive nuclei fraction z-score” value in assay [4] was determined as 0.268.

`O=c1[nH]c2ccccc2n1CCCN1CCC(n2c(=O)[nH]c3cc(Cl)ccc32)CC1` [Domperidone] showed a nucleus area z-score in assay [1] of 0.05. In assay [2], the “total neurite length per nucleus (z-score)” value was -0.0622. Further, in assay [3], the nucleus roundness z-score stood at 0.127. Further, the “KCl-induced FOS+/EGR-1+ double-positive nuclei fraction z-score” value in assay [4] came to 2.54.

In assay [1], `CC(=O)Nc1ccc(OC[C@](C)(O)C(=O)Nc2ccc([N+](=O)[O-])c(C(F)(F)F)c2)cc1` [Andarine] had a nucleus area z-score of 2.23. Also, the “total neurite length per nucleus (z-score)” value in assay [2] was 0.579. Further, in assay [3], the nucleus roundness z-score was found to be 0.145. Further, in assay [4], the “KCl-induced FOS+/EGR-1+ double-positive nuclei fraction z-score” value stood at 0.915.

The compound `CN[C@@H]1[C@@H](O)[C@@H](O[C@@H]2[C@@H](O)[C@H](O[C@H]3O[C@H](CN)CC[C@H]3N)[C@@H](N)C[C@H]2N)OC[C@]1(C)O.CN[C@@H]1[C@@H](O)[C@@H](O[C@@H]2[C@@H](O)[C@H](O[C@H]3O[C@H]([C@@H](C)N)CC[C@H]3N)[C@@H](N)C[C@H]2N)OC[C@]1(C)O.CN[C@@H]1[C@@H](O)[C@@H](O[C@@H]2[C@@H](O)[C@H](O[C@H]3O[C@H]([C@@H](C)NC)CC[C@H]3N)[C@@H](N)C[C@H]2N)OC[C@]1(C)O` [Gentamicin Sulfate] displayed a nucleus area z-score in assay [1] of -0.417. In assay [2], the “total neurite length per nucleus (z-score)” value was -0.0552. In assay [3], this compound gave a nucleus roundness z-score of -0.0857. Moreover, the “KCl-induced FOS+/EGR-1+ double-positive nuclei fraction z-score” value in assay [4] is 1.04.

Consider `CCCN1C[C@H](CSC)C[C@@H]2c3cccc4[nH]cc(c34)C[C@H]21` [Pergolide mesylate], for which the nucleus area z-score in assay [1] is -0.917. The “total neurite length per nucleus (z-score)” value in assay [2] was -1.02. Besides, in assay [3], the nucleus roundness z-score was -0.0535. Further, in assay [4], the “KCl-induced FOS+/EGR-1+ double-positive nuclei fraction z-score” value is 0.162.

On to `CN(CC[C@H](N)CC(=O)N[C@@H]1C=C[C@@H](n2ccc(N)nc2=O)O[C@H]1C(=O)O)C(=N)N` [Blasticidin S HCl], for which, in assay [1], the nucleus area z-score is -12. Moreover, in assay [2], the “total neurite length per nucleus (z-score)” value is -5.75. Also, the nucleus roundness z-score in assay [3] was -10.3. Further, in assay [4], the “KCl-induced FOS+/EGR-1+ double-positive nuclei fraction z-score” value was -0.979.

In the case of `CN1CCCCC1Cn1cc(C(=O)c2cc([N+](=O)[O-])ccc2I)c2ccccc21` (configuration not stated), the nucleus area z-score in assay [1] is -0.193. In addition, in assay [2], the “total neurite length per nucleus (z-score)” value was -1.4. This compound also returned a nucleus roundness z-score in assay [3] of -2.38. The “KCl-induced FOS+/EGR-1+ double-positive nuclei fraction z-score” value in assay [4] was -1.48.

In assay [1], `CN1[C@@H]2CC(O)C[C@H]1[C@@H]1O[C@@H]12` (some centres not stated) [Scopine] yielded a nucleus area z-score of -0.458. In assay [2], the “total neurite length per nucleus (z-score)” value came out at 0.473. The compound also registered a nucleus roundness z-score in assay [3] of 0.0233. Also, the “KCl-induced FOS+/EGR-1+ double-positive nuclei fraction z-score” value in assay [4] was 1.26.

`O=C(CC1NCCCC1O)Cn1cnc2cc(Br)c(Cl)cc2c1=O` (configuration not stated) [Halofuginone]: the nucleus area z-score in assay [1] was -17.4. Also, the “total neurite length per nucleus (z-score)” value in assay [2] was -6.22. Moreover, the nucleus roundness z-score in assay [3] is -0.0262. The “KCl-induced FOS+/EGR-1+ double-positive nuclei fraction z-score” value in assay [4] was found to be 2.69.

`CCN1CCN(C(=O)Cc2ccc(Nc3ncc(F)c(Nc4ccc(C(=O)Nc5ccccc5Cl)cc4)n3)cc2)CC1` [Aurora A Inhibitor I] showed a nucleus area z-score in assay [1] of 0.126. Also, the “total neurite length per nucleus (z-score)” value in assay [2] was determined as 0.254. Further, the nucleus roundness z-score in assay [3] was -1.55. In addition, the “KCl-induced FOS+/EGR-1+ double-positive nuclei fraction z-score” value in assay [4] is -1.16.

Consider `CN1c2ccccc2C(NCCCCCCC(=O)O)c2ccc(Cl)cc2S1(=O)=O` (configuration not stated) [Tianeptine sodium], for which the nucleus area z-score in assay [1] stood at 1.8. Moreover, the “total neurite length per nucleus (z-score)” value in assay [2] amounted to 2.92. In assay [3], this compound had a nucleus roundness z-score of 0.359. For the same compound, in assay [4], the “KCl-induced FOS+/EGR-1+ double-positive nuclei fraction z-score” value is -0.325.

The compound `CCN(C)C(=O)Oc1cccc([C@H](C)N(C)C)c1` [Rivastigmine Tartrate] gave a nucleus area z-score in assay [1] of -0.155. In assay [2], the “total neurite length per nucleus (z-score)” value is 0.337. In assay [3], the nucleus roundness z-score was -0.218. Further, the “KCl-induced FOS+/EGR-1+ double-positive nuclei fraction z-score” value in assay [4] is -0.855.

For `CCC1(c2cccc(O)c2)CCCCN(C)C1` (configuration not stated) [Meptazinol HCl], in assay [1], the nucleus area z-score was -0.673. In addition, in assay [2], the “total neurite length per nucleus (z-score)” value was -0.183. The nucleus roundness z-score in assay [3] was -0.308. In addition, in assay [4], the “KCl-induced FOS+/EGR-1+ double-positive nuclei fraction z-score” value stood at 0.265.

Turning to `c1ccc2c(c1)sc1ccccc12` [Dibenzothiophene], in assay [1], the nucleus area z-score was -0.385. Also, the “total neurite length per nucleus (z-score)” value in assay [2] was -0.24. Moreover, the nucleus roundness z-score in assay [3] is -0.0499. For the same compound, the “KCl-induced FOS+/EGR-1+ double-positive nuclei fraction z-score” value in assay [4] turned out to be 0.806.

`C=C1CC[C@@]2(O)[C@H]3Cc4ccc(O)c5c4[C@@]2(CCN3CC2CC2)[C@H]1O5` [Nalmefene HCl] yielded a nucleus area z-score in assay [1] of 0.0976. Also, the “total neurite length per nucleus (z-score)” value in assay [2] came to 0.487. This compound registered a nucleus roundness z-score in assay [3] of 0.111. For the same compound, in assay [4], the “KCl-induced FOS+/EGR-1+ double-positive nuclei fraction z-score” value was determined as 0.817.
